Source: the supplement of paper PMC11732987, “Enantioselective OTUD7B fragment discovery through chemoproteomics screening and high-throughput optimisation” (Communications Chemistry, 2025)
Some of the results follow. The data scatter; read single values as rough.

By UniProt entry, the sequences of proteins in these tests, tags left out. Where a name states a change or a piece, a line headed by the entry shows the natural chain unless it says otherwise. Residues count along the entry.
UniProt Q99798, 118-138: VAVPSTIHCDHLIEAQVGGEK
UniProt Q99996: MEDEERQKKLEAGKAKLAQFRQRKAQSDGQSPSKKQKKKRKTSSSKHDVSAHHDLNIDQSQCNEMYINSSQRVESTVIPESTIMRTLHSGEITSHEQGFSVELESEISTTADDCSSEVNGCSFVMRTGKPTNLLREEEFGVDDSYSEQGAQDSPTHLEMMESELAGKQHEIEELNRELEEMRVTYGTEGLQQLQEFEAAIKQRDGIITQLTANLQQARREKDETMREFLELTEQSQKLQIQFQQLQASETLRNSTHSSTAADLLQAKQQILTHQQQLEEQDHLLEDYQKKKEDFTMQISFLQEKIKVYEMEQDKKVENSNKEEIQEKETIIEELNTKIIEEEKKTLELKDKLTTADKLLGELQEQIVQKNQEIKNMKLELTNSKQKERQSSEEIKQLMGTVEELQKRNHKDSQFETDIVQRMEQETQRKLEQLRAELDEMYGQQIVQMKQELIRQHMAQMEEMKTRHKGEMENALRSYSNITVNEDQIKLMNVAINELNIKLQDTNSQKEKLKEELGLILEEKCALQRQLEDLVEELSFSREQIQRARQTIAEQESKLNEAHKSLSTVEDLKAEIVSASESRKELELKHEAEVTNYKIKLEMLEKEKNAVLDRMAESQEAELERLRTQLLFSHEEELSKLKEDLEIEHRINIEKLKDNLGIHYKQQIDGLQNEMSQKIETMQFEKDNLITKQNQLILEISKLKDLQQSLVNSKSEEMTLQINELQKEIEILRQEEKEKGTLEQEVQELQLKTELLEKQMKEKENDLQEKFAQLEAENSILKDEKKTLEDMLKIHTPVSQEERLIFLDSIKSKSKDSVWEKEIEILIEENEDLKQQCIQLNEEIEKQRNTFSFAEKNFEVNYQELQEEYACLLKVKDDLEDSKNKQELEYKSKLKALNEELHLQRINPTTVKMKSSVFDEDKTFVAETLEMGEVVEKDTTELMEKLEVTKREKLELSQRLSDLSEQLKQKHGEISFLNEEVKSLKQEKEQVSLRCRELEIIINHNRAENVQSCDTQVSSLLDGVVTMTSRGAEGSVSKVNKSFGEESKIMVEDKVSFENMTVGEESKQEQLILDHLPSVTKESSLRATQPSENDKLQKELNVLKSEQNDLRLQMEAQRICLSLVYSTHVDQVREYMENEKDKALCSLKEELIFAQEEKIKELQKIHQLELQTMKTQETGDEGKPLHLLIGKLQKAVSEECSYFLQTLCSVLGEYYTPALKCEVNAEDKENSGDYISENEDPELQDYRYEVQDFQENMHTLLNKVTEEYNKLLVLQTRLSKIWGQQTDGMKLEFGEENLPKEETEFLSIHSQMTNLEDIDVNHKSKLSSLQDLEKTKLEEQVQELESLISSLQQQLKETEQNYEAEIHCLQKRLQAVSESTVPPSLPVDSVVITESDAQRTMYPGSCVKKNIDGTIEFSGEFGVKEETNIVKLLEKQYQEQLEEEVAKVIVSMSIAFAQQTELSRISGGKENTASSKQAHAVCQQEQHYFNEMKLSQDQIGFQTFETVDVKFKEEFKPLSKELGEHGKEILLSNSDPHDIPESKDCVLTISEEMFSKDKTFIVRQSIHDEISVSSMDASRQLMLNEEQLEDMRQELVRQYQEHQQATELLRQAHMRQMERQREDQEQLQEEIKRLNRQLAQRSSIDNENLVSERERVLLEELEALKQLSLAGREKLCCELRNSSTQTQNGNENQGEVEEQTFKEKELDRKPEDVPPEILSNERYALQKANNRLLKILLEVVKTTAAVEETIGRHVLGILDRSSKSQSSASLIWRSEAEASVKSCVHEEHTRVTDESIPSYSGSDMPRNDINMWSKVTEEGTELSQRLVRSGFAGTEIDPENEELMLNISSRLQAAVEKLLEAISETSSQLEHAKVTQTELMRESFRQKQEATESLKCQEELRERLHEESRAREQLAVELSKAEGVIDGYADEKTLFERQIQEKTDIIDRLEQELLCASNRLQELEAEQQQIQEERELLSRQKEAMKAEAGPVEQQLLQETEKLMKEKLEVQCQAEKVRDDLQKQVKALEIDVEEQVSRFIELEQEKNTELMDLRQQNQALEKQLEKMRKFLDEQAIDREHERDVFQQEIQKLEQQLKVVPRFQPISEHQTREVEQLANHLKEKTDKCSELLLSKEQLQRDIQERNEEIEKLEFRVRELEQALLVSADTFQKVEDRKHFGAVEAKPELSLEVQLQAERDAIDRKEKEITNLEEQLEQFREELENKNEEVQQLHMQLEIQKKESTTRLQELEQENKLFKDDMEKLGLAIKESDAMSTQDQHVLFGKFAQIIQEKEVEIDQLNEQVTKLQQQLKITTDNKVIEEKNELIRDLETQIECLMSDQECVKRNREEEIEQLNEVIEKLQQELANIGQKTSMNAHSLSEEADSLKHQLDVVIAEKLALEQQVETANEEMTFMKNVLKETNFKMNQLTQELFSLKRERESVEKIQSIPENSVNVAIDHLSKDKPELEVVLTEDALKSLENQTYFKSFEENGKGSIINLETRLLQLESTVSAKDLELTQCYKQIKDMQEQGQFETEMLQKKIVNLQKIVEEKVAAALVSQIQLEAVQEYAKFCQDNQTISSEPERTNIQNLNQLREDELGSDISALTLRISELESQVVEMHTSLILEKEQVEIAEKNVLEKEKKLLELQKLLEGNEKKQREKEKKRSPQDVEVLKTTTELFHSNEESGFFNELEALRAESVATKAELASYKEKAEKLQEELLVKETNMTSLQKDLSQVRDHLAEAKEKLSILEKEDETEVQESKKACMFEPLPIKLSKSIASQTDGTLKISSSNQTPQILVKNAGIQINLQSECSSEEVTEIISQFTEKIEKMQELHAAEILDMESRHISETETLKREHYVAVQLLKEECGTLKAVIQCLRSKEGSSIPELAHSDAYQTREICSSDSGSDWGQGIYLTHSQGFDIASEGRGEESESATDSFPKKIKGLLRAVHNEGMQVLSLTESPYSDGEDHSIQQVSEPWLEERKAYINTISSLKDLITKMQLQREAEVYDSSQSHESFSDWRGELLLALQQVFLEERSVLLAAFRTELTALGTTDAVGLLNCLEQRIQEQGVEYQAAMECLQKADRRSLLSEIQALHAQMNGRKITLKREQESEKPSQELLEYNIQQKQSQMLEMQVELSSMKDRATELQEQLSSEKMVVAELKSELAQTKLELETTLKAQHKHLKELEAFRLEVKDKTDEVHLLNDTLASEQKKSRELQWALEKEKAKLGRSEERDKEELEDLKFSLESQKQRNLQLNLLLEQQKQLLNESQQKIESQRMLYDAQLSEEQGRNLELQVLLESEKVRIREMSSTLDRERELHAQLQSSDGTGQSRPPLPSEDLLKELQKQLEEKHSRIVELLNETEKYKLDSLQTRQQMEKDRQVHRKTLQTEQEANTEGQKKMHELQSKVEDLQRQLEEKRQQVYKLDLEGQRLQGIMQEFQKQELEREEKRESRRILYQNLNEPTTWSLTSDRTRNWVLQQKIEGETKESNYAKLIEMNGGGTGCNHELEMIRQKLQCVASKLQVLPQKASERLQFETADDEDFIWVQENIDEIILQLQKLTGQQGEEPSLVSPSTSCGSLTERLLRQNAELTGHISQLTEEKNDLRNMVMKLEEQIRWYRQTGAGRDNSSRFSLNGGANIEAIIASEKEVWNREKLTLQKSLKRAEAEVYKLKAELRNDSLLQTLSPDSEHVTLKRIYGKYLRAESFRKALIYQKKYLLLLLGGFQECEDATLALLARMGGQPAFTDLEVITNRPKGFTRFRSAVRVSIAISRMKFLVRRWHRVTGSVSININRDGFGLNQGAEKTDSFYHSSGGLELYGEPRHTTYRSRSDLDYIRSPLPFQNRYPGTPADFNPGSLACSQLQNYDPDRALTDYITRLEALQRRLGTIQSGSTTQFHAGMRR
UniProt Q9H553: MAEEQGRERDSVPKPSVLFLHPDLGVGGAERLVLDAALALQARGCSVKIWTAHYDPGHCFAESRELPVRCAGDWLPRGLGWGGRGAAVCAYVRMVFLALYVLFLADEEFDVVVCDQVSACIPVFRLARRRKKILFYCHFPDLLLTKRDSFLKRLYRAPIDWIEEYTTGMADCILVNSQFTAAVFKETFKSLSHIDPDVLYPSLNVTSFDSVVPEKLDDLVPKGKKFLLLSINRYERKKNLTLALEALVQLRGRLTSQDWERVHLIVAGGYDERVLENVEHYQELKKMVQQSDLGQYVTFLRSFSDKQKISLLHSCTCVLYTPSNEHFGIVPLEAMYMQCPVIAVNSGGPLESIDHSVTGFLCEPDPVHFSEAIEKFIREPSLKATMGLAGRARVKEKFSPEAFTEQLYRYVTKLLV
UniProt Q9NXW9: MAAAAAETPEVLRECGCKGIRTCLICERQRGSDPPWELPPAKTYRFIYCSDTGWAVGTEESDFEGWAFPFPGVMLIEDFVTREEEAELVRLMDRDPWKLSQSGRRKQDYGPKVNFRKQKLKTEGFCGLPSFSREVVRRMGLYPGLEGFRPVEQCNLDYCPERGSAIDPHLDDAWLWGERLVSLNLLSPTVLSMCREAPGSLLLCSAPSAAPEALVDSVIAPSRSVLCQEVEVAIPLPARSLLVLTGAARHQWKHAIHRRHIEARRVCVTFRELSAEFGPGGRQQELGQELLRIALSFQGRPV
UniProt Q96Q42: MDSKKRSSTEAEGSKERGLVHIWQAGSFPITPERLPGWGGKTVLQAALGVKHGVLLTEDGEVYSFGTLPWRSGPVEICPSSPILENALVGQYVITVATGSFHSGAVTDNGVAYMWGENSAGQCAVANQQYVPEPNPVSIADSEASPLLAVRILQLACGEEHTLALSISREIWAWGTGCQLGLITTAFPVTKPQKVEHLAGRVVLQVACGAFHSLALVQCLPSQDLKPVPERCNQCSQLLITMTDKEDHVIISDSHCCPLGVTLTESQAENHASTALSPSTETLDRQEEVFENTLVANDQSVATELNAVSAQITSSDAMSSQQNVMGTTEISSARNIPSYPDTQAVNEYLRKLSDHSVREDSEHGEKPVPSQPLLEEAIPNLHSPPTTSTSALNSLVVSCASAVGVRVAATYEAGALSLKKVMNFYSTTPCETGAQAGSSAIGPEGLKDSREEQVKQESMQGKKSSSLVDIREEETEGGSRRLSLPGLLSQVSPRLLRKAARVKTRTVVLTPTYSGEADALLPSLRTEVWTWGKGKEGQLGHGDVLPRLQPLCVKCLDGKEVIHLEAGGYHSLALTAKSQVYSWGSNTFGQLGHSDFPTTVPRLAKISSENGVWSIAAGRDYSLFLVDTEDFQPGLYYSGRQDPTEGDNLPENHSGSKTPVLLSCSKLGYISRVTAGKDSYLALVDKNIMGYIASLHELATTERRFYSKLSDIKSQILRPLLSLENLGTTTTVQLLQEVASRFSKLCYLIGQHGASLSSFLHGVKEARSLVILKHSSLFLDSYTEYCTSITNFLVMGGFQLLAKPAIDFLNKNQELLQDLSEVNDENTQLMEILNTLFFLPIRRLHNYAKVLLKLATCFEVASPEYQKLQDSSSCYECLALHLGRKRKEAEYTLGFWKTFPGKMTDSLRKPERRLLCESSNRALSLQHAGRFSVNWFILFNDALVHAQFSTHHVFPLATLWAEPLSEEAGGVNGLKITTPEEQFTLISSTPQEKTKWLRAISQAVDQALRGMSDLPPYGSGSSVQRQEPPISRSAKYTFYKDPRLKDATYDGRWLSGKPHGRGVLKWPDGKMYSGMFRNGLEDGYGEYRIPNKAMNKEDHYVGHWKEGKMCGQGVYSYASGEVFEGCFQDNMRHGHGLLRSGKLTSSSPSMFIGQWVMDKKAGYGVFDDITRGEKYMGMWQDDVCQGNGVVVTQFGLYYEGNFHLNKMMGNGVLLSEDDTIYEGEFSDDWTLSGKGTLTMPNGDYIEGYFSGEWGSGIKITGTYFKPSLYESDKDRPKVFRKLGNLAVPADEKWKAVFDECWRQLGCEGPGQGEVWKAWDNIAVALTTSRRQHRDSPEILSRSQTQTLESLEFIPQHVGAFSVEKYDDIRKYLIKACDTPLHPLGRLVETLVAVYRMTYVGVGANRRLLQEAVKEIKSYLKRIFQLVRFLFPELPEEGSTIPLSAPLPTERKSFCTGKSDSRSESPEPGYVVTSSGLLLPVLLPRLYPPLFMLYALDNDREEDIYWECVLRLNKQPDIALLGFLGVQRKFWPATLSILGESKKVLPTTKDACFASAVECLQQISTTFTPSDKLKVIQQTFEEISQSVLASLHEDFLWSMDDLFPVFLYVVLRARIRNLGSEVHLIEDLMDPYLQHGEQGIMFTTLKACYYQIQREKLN

How the values were obtained:
[1] = compound: ClCC(=O)N[C@@H]1CCCc2ccccc12; experiment: log2 mean competition ratio of IA-DTB cysteine labelling (DMSO/compound) (log2 ratio); higher = stronger cysteine engagement by compound; settings: treatment time: 4 h, cell line lysate: HEK293T
Experimental: (§1)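 IA-DTB competitive cysteine chemoproteomics in HEK293T RIPA lysate. Lysates were treated with compound 29 or 30 at 50 or 200 µM for 4 h, then IA-DTB (500 µM, 1 h), trypsin-digested, NeutrAvidin-enriched and analysed by diaPASEF. Competition ratio = intensity DMSO / intensity compound (n=4 treated, n=64 DMSO); binding: mean log2 CR ≥ 1 and p ≤ 0.05 plus QC filters. Target is the cysteine site.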

[2] = compound: ClCC(=O)N[C@H]1CCCc2ccccc12; experiment: as above; settings: treatment time: 4 h, cell line lysate: HEK293T
Experimental: as §1

Row | Target | log2 mean competition ratio ([1]; 50 µM) | log2 mean competition ratio ([1]; 200 µM) | log2 mean competition ratio ([2]; 50 µM) | log2 mean competition ratio ([2]; 200 µM)
1 | ACO2 C126 (UniProt Q99798) | -0.0896 | -0.312 | -0.117 | -0.356
2 | ALDOA C339 | 0.0767 | 0.368 | 0.141 | 0.496
3 | ADNP2 C735 (UniProt Q6IQ32) | 0.111 | 0.101 | 0.404 | -0.137
4 | ACLY C845 (UniProt P53396) | 0.116 | 0.0797 | -0.0861 | 0.0223
5 | ALDOA C202 | -0.184 | 0.667 | 0.11 | 0.501
6 | AKAP9 C1367 (UniProt Q99996) | -0.121 | -0.228 | -0.233 | -0.245
7 | ADAM10 C435 (UniProt O14672) | 0.314 | 0.00704 | -0.17 | -0.0437
8 | AKAP8L C128 (UniProt Q9ULX6) | 0.167 | 0.0846 | -0.0408 | 0.267
9 | AGBL5 C377 | 0.08 | -0.164 | -0.0114 | -0.509
10 | ALG2 C89 (UniProt Q9H553) | 0.156 | 0.0336 | -0.103 | -0.0272
11 | ALKBH4 C126 (UniProt Q9NXW9) | 0.379 | 0.384 | 0.423 | 0.148
12 | ALDH1L2 C728 (UniProt Q3SY69) | 0.0628 | 0.375 | 0.219 | 0.083
13 | ALS2 C916 (UniProt Q96Q42) | -0.022 | 0.0606 | -0.0251 | 0.0106
14 | ACD C380 (UniProt Q96AP0) | 0.24 | 0.299 | 0.446 | 0.411
15 | AJUBA C270 (UniProt Q96IF1) | 0.179 | 0.367 | 0.2 | 0.168
16 | ADD3 C286 (UniProt Q9UEY8) | -0.131 | 0.204 | -0.29 | -0.0278
17 | AMOT C781 (UniProt Q4VCS5) | -0.0906 | 0.051 | -0.0723 | -0.0654

Single records, from the list above. Order of values: log2 mean competition ratio ([1]; 50 µM)	log2 mean competition ratio ([1]; 200 µM)	log2 mean competition ratio ([2]; 50 µM)	log2 mean competition ratio ([2]; 200 µM)
ACD C380 (UniProt Q96AP0) in the list: 0.24	0.299	0.446	0.411
AJUBA C270 (UniProt Q96IF1) in the list: 0.179	0.367	0.2	0.168
